Data taken from patent publication US20140045756A1.

What was measured:
[1] = target: TNFR2 immobilized on the SPR sensor chip (channel 1) (Homo sapiens (Human)); assay: SPR (SensiQ Pioneer, FastStep injection), TNFR2 immobilized
[2] = target: TNFR1 immobilized on the SPR sensor chip (channel 3) (Homo sapiens (Human)); assay: SPR (SensiQ Pioneer, FastStep injection), TNFR1 immobilized

- binding [1]: binds
- binding [2]: binds
B1: Atsttrin-α1 (Antagonist of TNF/TNFR Signaling via Targeting to TNF Receptors-α1), recombinant (designed binder)
chain: GILPQASCCEDRVHCCPHGAFCDLVHTRCITPTGTHPLAKKLPAQRTNRAVALSSSSKENATTDLLTKLPAHTVGDVKCDMEVSCPDGYTCCRLQSGAWCEQGPHQVPWMEKAPAHLSLPDPQALKRDVPCDNVSSCPSSDTCCQLTSGEWGCCPIP

No constants are given. Whether binding was seen depends on the method and setting. Binding calls can cover weak binding; strength is not graded here. Where a sequence is shown, tags or fusion partners need not be part of it.
